In doi:10.1101/2021.05.19.444898 one finds binding data, which are given here for 25 molecules.

Sequences of proteins named here, by UniProt entry; tags and fusion partners are left off. A change or cut given only in a name is not applied to a line headed by its entry.
UniProt A8BHA7: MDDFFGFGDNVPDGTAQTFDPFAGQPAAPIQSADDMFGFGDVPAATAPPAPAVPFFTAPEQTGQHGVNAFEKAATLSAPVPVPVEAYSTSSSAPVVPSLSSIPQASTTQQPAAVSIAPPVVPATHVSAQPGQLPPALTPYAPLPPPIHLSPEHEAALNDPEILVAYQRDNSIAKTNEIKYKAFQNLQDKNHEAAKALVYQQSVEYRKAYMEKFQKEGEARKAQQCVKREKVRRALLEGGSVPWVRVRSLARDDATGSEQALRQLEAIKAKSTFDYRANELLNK
UniProt A8BQ62: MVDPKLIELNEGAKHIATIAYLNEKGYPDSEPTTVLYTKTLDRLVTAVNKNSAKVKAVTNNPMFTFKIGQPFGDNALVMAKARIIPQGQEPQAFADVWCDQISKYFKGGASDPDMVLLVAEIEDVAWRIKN
UniProt A8BZB0: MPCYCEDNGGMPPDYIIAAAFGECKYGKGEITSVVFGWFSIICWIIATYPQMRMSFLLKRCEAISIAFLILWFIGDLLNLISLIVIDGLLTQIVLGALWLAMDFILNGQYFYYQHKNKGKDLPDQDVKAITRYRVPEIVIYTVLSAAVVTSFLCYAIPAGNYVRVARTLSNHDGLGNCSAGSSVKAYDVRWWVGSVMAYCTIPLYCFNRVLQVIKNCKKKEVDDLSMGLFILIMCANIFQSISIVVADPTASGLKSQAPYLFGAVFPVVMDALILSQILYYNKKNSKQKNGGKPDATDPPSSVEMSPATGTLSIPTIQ
UniProt A8BXV9: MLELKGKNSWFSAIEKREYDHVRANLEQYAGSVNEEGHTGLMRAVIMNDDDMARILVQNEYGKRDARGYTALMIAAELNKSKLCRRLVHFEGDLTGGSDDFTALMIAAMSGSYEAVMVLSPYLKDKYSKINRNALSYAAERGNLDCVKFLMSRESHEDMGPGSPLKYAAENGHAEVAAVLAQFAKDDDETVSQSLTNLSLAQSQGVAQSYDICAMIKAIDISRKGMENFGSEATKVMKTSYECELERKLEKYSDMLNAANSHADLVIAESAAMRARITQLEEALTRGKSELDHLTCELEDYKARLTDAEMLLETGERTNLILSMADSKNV
UniProt A8BL61: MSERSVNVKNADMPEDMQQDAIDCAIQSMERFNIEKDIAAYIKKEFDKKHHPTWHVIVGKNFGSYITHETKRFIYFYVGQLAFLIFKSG
UniProt A8BCC2: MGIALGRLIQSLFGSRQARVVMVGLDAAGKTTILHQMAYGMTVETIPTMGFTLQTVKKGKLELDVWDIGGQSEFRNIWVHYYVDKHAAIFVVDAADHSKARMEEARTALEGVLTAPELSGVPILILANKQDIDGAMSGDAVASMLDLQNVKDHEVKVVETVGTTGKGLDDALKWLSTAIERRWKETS
UniProt A8BDA9: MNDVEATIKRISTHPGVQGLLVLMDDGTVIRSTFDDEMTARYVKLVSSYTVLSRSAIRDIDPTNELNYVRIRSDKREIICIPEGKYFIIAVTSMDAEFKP
UniProt A0A644F787: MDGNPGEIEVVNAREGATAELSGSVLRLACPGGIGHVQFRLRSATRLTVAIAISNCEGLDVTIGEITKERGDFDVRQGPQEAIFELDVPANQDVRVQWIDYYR
UniProt Q4VPP2: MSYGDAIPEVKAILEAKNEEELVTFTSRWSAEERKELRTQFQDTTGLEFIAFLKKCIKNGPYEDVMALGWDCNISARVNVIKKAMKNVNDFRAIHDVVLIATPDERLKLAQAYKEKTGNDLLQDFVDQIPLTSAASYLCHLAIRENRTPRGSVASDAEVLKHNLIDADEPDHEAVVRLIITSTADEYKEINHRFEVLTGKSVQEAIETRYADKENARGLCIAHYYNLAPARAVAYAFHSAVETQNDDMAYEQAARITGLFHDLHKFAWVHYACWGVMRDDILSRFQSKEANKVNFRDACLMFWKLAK
UniProt E2RTN7: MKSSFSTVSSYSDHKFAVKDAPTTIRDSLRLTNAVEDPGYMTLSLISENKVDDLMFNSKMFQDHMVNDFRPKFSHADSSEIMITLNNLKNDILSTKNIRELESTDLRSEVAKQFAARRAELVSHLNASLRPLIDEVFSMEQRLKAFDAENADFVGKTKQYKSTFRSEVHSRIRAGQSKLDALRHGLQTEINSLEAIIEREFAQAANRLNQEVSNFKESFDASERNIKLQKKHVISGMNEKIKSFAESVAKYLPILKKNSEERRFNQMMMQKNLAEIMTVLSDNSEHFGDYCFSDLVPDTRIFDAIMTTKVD
UniProt A8B9U8: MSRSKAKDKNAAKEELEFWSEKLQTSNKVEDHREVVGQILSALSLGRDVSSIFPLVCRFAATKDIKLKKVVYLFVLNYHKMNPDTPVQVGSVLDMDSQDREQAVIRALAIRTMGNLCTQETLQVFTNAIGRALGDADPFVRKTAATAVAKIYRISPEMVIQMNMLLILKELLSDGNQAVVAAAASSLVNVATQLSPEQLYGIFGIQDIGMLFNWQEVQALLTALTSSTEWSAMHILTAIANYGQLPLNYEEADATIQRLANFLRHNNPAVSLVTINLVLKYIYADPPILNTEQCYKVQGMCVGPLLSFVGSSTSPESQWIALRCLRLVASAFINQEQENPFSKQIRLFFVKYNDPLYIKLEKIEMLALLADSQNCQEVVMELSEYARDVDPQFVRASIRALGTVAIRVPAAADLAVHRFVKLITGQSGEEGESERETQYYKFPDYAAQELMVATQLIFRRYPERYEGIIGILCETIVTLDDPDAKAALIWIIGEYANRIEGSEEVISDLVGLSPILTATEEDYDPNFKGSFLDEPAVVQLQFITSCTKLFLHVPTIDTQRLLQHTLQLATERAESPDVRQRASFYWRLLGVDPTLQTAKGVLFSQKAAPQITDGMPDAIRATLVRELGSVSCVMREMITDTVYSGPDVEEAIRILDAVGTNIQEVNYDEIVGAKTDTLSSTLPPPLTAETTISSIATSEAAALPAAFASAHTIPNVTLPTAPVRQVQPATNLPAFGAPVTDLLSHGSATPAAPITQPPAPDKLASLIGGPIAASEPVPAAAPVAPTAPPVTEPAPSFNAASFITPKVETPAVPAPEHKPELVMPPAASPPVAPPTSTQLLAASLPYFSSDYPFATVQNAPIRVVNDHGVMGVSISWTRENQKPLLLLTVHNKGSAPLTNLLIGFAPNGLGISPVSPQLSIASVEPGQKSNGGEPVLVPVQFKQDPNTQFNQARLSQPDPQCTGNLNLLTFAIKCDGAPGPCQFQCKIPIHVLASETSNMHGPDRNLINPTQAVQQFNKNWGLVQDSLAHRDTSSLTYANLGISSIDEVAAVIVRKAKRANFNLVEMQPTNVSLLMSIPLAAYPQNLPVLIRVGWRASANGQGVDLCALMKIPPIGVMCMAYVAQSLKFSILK
UniProt A8BGY8: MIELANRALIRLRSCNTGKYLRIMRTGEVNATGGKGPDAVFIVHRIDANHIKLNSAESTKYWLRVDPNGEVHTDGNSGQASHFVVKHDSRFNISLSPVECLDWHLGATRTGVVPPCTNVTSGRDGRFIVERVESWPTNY
UniProt A8B440: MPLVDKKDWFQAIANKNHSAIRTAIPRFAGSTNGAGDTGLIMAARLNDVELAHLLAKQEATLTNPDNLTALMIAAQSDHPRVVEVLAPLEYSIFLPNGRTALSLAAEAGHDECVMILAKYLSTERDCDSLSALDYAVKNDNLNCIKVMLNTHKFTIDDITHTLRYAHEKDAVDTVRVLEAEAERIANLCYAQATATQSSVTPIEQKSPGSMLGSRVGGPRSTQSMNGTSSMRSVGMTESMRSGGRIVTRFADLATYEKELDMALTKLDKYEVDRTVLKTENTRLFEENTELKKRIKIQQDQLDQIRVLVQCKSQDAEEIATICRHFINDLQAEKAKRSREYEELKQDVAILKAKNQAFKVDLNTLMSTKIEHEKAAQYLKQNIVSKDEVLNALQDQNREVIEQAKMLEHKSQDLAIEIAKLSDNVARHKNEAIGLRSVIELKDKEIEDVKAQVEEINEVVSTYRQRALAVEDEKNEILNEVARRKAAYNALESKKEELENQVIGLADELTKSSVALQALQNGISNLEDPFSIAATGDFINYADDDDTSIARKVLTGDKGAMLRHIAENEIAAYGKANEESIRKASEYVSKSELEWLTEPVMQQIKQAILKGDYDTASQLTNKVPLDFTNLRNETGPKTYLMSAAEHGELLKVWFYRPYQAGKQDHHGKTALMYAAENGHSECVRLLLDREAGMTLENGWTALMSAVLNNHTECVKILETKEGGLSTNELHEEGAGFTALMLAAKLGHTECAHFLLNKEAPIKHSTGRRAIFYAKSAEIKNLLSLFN
UniProt A8BKY7: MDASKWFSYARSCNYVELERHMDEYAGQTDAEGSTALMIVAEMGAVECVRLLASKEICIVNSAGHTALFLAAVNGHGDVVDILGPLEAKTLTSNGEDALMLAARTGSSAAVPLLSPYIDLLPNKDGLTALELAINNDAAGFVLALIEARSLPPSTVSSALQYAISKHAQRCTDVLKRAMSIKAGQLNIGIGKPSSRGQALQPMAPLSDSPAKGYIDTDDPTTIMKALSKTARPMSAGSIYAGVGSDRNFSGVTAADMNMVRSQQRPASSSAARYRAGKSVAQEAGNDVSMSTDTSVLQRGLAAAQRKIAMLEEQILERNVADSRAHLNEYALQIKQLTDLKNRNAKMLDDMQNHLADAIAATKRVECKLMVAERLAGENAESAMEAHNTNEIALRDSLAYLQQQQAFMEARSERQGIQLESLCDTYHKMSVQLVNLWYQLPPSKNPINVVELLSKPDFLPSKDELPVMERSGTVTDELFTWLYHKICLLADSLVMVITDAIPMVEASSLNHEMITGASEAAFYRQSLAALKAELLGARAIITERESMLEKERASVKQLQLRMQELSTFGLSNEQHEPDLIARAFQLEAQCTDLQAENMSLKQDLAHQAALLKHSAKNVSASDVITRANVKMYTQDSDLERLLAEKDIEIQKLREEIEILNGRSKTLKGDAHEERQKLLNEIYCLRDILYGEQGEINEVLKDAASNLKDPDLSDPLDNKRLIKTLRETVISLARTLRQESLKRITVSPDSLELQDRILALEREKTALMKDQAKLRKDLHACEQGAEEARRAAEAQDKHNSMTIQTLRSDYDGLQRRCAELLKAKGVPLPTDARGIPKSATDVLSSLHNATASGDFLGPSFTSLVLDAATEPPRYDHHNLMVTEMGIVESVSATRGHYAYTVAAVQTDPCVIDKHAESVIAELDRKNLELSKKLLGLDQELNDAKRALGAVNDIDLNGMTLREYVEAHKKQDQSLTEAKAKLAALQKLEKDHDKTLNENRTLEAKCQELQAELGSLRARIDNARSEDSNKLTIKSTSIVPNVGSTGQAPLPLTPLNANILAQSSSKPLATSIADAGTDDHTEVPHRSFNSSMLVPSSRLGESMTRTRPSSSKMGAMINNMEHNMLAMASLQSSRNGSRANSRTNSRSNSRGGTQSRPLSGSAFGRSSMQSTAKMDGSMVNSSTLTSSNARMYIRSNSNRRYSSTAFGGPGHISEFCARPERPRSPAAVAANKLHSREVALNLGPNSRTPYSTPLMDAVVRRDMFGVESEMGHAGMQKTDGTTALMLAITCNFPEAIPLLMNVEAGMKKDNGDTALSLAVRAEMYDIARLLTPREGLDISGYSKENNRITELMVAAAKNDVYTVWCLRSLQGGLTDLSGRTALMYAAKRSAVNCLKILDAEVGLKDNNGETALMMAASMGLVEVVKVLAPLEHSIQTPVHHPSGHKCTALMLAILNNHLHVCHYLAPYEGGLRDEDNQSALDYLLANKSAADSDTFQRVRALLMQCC
UniProt A8BR64: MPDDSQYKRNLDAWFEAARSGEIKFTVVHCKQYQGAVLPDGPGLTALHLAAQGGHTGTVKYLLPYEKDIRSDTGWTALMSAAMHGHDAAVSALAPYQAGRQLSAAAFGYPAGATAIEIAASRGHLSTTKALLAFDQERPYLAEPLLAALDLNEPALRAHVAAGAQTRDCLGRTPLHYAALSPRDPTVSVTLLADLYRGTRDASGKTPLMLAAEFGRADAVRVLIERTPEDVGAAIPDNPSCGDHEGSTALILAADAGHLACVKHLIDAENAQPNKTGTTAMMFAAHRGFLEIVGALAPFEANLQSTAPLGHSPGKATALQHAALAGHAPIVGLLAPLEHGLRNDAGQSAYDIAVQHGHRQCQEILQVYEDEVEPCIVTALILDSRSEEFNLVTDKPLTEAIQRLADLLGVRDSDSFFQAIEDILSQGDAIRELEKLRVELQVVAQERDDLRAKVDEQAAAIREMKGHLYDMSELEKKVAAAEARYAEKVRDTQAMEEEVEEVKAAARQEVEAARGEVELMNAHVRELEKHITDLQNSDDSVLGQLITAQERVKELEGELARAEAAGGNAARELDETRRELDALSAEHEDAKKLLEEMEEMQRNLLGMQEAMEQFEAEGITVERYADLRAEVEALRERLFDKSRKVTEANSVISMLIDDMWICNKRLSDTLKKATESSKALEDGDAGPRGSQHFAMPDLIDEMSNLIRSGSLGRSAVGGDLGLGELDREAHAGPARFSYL

Experiment [1] has as its target Giardia lamblia actin (GlActin) (Giardia lamblia (endogenous in strain WB clone 6)) (UniProt P51775). In words: affinity purification with mass spectrometry.
The target in experiment [2] is T1, Giardia lamblia actin (GlActin) (Giardia lamblia (endogenous in strain WB clone 6)), P51775.
T1 chain: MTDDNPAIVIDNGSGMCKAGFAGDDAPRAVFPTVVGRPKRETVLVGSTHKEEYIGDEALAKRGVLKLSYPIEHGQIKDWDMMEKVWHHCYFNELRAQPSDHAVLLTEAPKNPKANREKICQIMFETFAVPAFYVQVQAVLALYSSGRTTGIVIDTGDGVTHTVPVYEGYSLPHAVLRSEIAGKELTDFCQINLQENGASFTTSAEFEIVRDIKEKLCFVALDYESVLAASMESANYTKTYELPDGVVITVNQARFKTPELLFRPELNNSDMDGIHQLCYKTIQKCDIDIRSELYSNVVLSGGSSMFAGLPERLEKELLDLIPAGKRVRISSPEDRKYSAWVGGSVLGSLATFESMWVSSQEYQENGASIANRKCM
The experiment is described as follows: affinity purification with mass spectrometry. To be noted: remark: other sources report otherwise.

No constants are given. Whether binding was seen depends on the method and setting. Binding seen in cells or lysates may run through a third protein. A yes stands for co-enrichment or nearness to the bait. Other partners may have been found.

As for “GL50803_4259 (clathrin light chain) (from UniProt A8BHA7)”, in experiment [1], the binding result is reported as “binds”.
The same measure, in the same setting: the same measure for “GL50803_4383 (ankyrin repeat protein) (from UniProt A8BPT7)”: “binds”.
On the same count and under the same terms, the same measure for “GL50803_4463 (dynein light chain) (from UniProt A8BYC9)”: “binds”.
Same read-out and setting: for GL50803_5810 (from UniProt A8BQ62) the value was “binds”.
Turning to “GL50803_8044 (7 transmembrane domain) (from UniProt A8BZB0)”, the binding result in experiment [1] is given as “binds”.
The same measure, in the same setting: the same measure for GL50803_8726 (from UniProt A8BUF3): “binds”.
On to “GL50803_9030 (ankyrin repeat) (from UniProt A8BXV9)”, for which the binding result in experiment [1] was “binds”.
With “GL50803_9848 (dynein light chain) (from UniProt A8BL61)”, the binding result in experiment [1] was “binds”.
On the same count and under the same terms, for “GL50803_13930 (Arf3) (from UniProt A8BCC2)” the value was “binds”.
The same measure, in the same setting: the same measure for “GL50803_14213 (coiled coil domain) (from UniProt A8B470)”: “binds”; for “GL50803_15124 (dynein light chain) (from UniProt A8BDA9)”: “binds”; for “GL50803_15591 (coil coil protein) (from UniProt A0A644F565)”: “binds”.
GL50803_16522 (from UniProt A0A644F787): in experiment [1], the binding entry is on record as “binds”.
On the same count and under the same terms, for “GL50803_17153 (alpha-11 giardin) (from UniProt Q4VPP2)” the value was “binds”; for “GL50803_17230 (gamma-giardin) (from UniProt E2RTN7)”, “binds”.
Same read-out and setting: for “GL50803_21423 (beta adaptin) (from UniProt A8B9U8)” the value was “binds”.
On the same count and under the same terms, the same measure for “GL50803_23833 (VPS35) (from UniProt E2RU45)”: “binds”; for “GL50803_24451 (FGF domain) (from UniProt A8BGY8)”: “binds”.
Consider “GL50803_27925 (ankyrin-repeat domains) (from UniProt A8B440)”, for which, in experiment [1], the binding result is “binds”.
With “GL50803_33685 (armadillo repeat) (from UniProt A8BMP5)”, in experiment [1], the binding entry is recorded as “binds”.
For the molecule “GL50803_102813 (ankyrin repeat protein) (from UniProt A8BAG8)”, the binding result in experiment [1] is recorded as “binds”.
For “GL50803_103855 (VPS29) (from UniProt A0A644F1B7)”, in experiment [1], the binding entry is recorded as “binds”.
Still for that read-out and setting: for “GL50803_113622 (ankyrin-repeat domains) (from UniProt A8BKY7)” the value was “binds”; for “GL50803_115478 (ankyrin repeat) (from UniProt A8BR64)”, “binds”.

B1: 14-3-3, E2RU97 1-248 (protein)
chain: MAEAFTREDYVFMAQLNENAERYDEMVETMRKISGMEGELSDKERNLLSVAYKNVIGPRRAAWRIVSSIEAKEKGRQKPNAKRIEQIRVYRQKIEKELSDICNDILKLLQEQFVPRSTNADAKVFYYKMQGDYYRYLAEYSSGEDKEKIAGSALNAYNSAFEISQQLPPTHPIRLGLALNFSVFYYEILASPDRACELARKAFDAAITDLDKLTEESYKDSTLIMQLLRDNLNLWVTDSAGDDNAEEK
Take B1: the binding result in experiment [2] is recorded as “binds”.
